Measured values published in patent publication US20240335548A1, “MACROMOLECULES” (Starpharma Pty Ltd, priority 2011, published 2024).
Some of these results come from one statement about several compounds together.

System: MDA-MB-231 tumour xenografts
Experiment: MDA-MB-231 mouse xenograft breast cancer model, SPL9048 study
Details: change from baseline (Day 1), any group

CO[C@H]1C(=O)[C@]2(C)[C@@H](OC)C[C@H]3OC[C@@]3(OC(C)=O)[C@H]2[C@H](OC(=O)c2ccccc2)[C@]2(O)C[C@H](OC(=O)[C@H](O)[C@@H](NC(=O)OC(C)(C)C)c3ccccc3)C(C)=C1C2(C)C [cabazitaxel, reference compound]
mean weight loss: ≤ 6%
